Experimental data from PMC8888621.
No constants are given. Whether binding was seen depends on the method and setting. Binding seen in cells or lysates may run through a third protein. Some results given as binding are weak or reduced against the parent protein; the word gives no strength.

By UniProt entry, the sequences of proteins in these tests, tags left out. Residues count along the entry.
UniProt Q9QUN7, residues 25-784: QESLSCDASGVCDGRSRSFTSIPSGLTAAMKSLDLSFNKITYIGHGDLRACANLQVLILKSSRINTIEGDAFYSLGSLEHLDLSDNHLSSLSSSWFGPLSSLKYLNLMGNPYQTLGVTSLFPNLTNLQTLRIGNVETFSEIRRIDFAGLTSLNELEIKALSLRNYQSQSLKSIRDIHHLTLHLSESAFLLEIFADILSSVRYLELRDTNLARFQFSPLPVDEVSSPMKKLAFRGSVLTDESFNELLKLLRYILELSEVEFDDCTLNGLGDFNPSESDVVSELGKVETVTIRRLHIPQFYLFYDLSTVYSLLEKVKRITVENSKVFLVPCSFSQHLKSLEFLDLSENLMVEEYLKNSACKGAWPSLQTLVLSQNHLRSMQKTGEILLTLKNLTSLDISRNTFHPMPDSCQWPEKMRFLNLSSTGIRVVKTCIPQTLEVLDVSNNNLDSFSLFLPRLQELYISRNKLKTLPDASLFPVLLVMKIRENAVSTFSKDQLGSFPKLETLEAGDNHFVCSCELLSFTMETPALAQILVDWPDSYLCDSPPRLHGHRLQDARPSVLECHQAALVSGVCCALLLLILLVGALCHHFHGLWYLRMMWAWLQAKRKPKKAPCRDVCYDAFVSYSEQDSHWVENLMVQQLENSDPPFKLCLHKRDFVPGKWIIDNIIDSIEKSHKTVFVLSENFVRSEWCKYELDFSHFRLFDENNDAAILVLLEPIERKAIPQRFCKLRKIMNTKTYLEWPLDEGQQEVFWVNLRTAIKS
UniProt P22366: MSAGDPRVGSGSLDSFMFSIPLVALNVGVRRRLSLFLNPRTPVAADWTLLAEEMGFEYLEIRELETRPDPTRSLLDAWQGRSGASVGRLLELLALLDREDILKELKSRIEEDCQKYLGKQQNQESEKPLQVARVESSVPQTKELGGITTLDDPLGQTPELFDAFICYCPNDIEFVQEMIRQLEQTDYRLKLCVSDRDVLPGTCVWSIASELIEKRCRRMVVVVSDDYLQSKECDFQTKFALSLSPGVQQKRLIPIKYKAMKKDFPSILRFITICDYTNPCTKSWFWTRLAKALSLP

Biological target: sialylated TLR2 (mouse (endogenous in BMMs)) (UniProt Q9QUN7)
Experiment: co-IP; endogenous proteins in lysates (IP buffer with protease inhibitors) of mouse BMMs induced to osteoclasts; IP with anti-TLR2, anti-Siglec15 or anti-DAP12, Protein A/G, immunoblot; in Fig. 5 the BMMs were induced with RANKL, sialidase or both

binding: binds
Substance: myeloid differentiation primary response protein 88 (MyD88) (from UniProt P22366 1-296)
